The target of assay [1] is HER3 endogenous in breast cancer cells (T47-D, MCF-7, MDA-MB-453) (human (endogenous in T47-D, MCF-7, MDA-MB-453)) (UniProt P21860). Description: proximity ligation; in situ PLA with anti-DJ-1 and anti-HER3 antibodies in T47-D and MCF-7 cells grown on chamber slides, starved 16 hours, with or without NRG-1 for 30 min.
Assay [2] has the same target. In words: co-IP; co-IP and Western blot from lysates of breast cancer cells (T47-D, MCF-7, MDA-MB-453), endogenous proteins; in T47-D and MCF-7 with DJ-1 Ab and with HER3 Ab, cells with or without NRG-1.
Assay [3] deals with human HER3 (full length), stably overexpressed in CHO cells (CHO-HER3) (human) (UniProt P21860). In words: co-IP; co-IP and Western blot from lysates of CHO cells expressing full length human HER3 or HER3/HER2 chimeras; for the chimeras IP with an antibody against the extracellular domains of HER3 (anti-N-HER3). Background: A western blot detects proteins with antibodies after separation by electrophoresis.

Amino acid sequences for entries named in this document (tags omitted). Residues count along the entry.
UniProt P21860, residues 20-1342: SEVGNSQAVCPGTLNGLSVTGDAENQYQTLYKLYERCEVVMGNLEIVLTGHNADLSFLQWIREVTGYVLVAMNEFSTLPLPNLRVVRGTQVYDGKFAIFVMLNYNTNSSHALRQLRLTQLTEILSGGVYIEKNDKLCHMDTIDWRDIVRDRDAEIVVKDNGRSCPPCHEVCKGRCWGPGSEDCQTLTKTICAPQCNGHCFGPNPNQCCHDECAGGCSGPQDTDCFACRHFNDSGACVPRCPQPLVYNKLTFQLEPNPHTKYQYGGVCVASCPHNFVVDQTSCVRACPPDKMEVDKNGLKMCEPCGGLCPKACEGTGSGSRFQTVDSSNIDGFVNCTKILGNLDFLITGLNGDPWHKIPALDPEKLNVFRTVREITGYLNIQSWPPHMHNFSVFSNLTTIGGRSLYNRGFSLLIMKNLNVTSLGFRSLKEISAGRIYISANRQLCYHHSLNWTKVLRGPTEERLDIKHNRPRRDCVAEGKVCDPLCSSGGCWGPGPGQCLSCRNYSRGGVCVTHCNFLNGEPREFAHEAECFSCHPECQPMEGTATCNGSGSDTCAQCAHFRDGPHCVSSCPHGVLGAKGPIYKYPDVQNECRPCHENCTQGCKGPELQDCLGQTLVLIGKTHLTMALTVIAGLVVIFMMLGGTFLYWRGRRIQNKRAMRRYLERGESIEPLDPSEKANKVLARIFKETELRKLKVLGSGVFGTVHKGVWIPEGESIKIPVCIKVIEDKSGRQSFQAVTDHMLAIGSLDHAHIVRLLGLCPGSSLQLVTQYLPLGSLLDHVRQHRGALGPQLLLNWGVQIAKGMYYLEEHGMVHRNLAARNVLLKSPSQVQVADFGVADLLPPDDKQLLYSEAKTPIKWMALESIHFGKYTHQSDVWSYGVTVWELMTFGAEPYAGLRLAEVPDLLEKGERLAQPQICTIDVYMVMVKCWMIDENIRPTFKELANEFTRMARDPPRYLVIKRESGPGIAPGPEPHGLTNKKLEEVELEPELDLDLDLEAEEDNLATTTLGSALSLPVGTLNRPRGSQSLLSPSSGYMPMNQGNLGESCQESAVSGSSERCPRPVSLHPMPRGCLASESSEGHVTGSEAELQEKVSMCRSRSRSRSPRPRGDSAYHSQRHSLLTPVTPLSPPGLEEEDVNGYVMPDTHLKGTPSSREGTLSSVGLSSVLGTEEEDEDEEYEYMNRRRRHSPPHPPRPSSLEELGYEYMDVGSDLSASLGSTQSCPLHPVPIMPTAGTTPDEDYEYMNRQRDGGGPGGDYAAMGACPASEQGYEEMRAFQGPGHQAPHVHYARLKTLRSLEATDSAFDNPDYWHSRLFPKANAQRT

These are yes or no findings as the source states them, for the method shown. In cells and extracts the contact can be indirect. Some entries that bind do so weakly or less than the wild type.

With “DJ-1 endogenous in breast cancer cells (T47-D, MCF-7, MDA-MB-453) (from UniProt Q99497 1-189)”, the binding entry in assay [1] and in assay [2] was “binds” each time.

B1: DJ-1 in CHO-HER3 cells (protein, UniProt G3IEU2 1-189)
chain: MASKRALVILAKGAEEMETVIPVDVMRRAGIKVTIAGLAGKDPVQCSRDVMICPDTSLEDAKKQGPYDVVVLPGGNLGAQNLSESAVVKEILKEQESRKGLIAAICAGPTALLAHEIGFGSKVTTHPGAKDKMINGGHYSYTESRVERDGLILTSQGPGTSFEFALAIVEALSGKEMADKVKAPLLLKD
As for B1, the binding result in assay [3] is recorded as “binds”.

These data come from publication PMC5323190.
